This is an account of results in patent publication US20110065706A1, “Therapeutic Agents 812” (AstraZeneca AB, priority 2009, published 2011).

Protein sequences, listed by entry. Tags and fused reporters are not part of them.
UniProt Q8TDV5, whole entry: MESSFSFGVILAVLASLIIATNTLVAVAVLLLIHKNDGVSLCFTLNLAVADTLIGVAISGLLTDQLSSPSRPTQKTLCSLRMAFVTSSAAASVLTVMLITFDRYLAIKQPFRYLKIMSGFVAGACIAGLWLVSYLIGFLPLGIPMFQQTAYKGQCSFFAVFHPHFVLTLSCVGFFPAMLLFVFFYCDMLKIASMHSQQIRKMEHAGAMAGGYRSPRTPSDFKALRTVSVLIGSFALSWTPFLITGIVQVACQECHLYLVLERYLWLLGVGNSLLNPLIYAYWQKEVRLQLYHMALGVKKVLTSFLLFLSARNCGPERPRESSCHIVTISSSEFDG

For the assay, the target named is human GPR119 (Homo sapiens, UniProt Q8TDV5). The assay can be described thus: Cyclic AMP (HTRF cAMP) assay for human GPR119, Method A. It counts as cell-based.

The match of structure and compound is tentative.

For orientation: EC50 means the midpoint of the concentration-response curve.

Consider `CC(C)(C)OC(=O)N1CCN(c2ncc(OCc3ccc(-n4cncn4)nc3)cn2)CC1`, for which, under “HEK 293s cells over-expressing human GPR119, midpoint of dose response curve, selected examples”, the EC50 worked out at 103 nM. The “% activation @ 30 μM” value (HEK 293s cells over-expressing human GPR119, percent effect at top concentration 30 μM relative to maximum (50 μM Oleoylethanolamide) and minimum (1% DMSO) controls) is listed as 88%.
